Assay results taken from publication PMC11239676 (2024).
Results are given in words; binding and its absence hold for the method and conditions named. For part of these data: In cells and extracts the contact can be indirect. Some results given as binding are weak or reduced against the parent protein; the word gives no strength.

The chains behind the UniProt entries cited, without tags or fusion partners.
UniProt P04198: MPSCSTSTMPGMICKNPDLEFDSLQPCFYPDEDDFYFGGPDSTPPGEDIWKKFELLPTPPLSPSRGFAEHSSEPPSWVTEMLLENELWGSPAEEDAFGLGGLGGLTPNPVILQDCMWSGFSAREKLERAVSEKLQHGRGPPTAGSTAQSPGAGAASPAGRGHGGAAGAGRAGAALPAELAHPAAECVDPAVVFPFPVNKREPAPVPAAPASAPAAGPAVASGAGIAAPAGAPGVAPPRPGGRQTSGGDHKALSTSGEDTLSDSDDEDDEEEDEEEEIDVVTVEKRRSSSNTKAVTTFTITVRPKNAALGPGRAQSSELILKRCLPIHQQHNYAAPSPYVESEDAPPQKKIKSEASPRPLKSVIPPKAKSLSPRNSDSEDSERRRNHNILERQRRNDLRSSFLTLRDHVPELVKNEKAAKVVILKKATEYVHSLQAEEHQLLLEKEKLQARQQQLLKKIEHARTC
UniProt P61244: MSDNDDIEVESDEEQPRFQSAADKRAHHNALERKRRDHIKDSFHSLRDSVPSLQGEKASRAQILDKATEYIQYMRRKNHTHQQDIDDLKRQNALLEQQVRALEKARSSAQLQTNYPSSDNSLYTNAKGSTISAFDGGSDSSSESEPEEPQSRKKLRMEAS

Columns and labels:
[1] = target: MYCN (human (endogenous in KELLY)) (UniProt P04198); test: co-IP; endogenous proteins; 200 µg nuclear protein of KELLY cells with doxycycline-inducible RUNX1T1 shRNA, with and without doxycycline (1 µg/mL, 72 h); anti-MYCN antibody or normal mouse IgG overnight at 4 °C, Protein G agarose; immunoblot
[2] = target: T1, 15N-labelled NHR4 MYND domain of RUNX1T1 (UniProt Q06455 510-559, 15N-labelled); test: NMR titration; 15N-HSQC of 60 µM 15N-labelled NHR4 MYND; peptide titrated in steps of 0.5 molar equivalents up to 12; 20 mM Mes, 100 mM NaCl, 120 µM ZnAc, 2 mM TCEP pH 6; 298 K; chemical shift perturbations of three signals fitted to a 1:1 model; both purified
T1 chain: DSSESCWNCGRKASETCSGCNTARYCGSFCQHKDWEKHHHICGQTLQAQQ

MAX (from UniProt P61244 1-160)
binding [1]: binds

Ac-LNQPPPPLIRPAN-NH2 [RCOR3_3 peptide (human RCOR3 residues 448-460)]
binding [2]: binds

Ac-TISNPPPLISSAK-NH2 [NCOR2 peptide (human NCOR2 residues 1101-1113)]
binding [2]: binds
